Experiments:
[1] = Sensitisation of acrylate polymerisation: tungsten light exposure of laminate, acetone development (Example 4); details: 250W tungsten light source, 30 seconds
Protocol: The ability of Dye C of the invention and Control Dyes 1 and 2 to sensitise acrylate polymerisation was evaluated by the following protocol.
A solution of Dye C (0.lg), pentaerythritol tetraacrylate monomer (0.6g), commercially available from Ancomer Chemicals under the trade designation ATM 11, 4-butoxyphenyl phenyl iodonium trifluoroacetate (0.125g) shown below as IOD J, and poly(vinyl butyral) (Butvar B-76) (0.6 g), was made in butanone (95 g) in conditions of diminished light. [drawing 30]
The solution was coated onto 0.01 cm unsubbed poly(ethylene terephthalate) (PET) base at a wet thickness of 24μm and dried. A laminate was prepared by covering the monomer coating with a second 0.01 cm PET sheet by cold pressure rolling. The laminate was imagewise exposed to a 250W tungsten light source for 30 seconds using the stage of an overhead projector. […] Stripping of the cover sheet was more readily completed in exposed areas, whereas, in unexposed areas the monomer coatings partially adhered to the cover sheet. The latent image was developed by immersion in acetone, wherein exposed areas remained adhered to the PET base and unexposed areas were rapidly dissolved to obtain a relief image.

[2] = Sensitisation of polymerisation: laser diode exposure of PVA-topcoated layer, toner development (Example 5); details: for Promotion of polymerisation: Example 5 protocol repeated
[3] = Speed enhancement by triphenylphosphine: minimum laser scan time to destroy tackiness (Example 6); details: 1.5 cm lines

## CCOC(=O)C(C#N)=CC=CC=CC=CC(C#N)=C(O)OCC [Control Dye 1]
[1]
  Loss of dye optical density upon irradiation: complete loss of dye optical density
  Polymerisation of acrylate monomer: no evidence of polymerisation was obtained
[2]
  Promotion of polymerisation: did not promote polymerisation

## O=C1C(=CC=CC=CC=CC2=C(O)c3ccccc3C2=O)C(=O)c2ccccc21 [Control Dye 2]
[1]
  Loss of dye optical density upon irradiation: complete loss of dye optical density
  Polymerisation of acrylate monomer: no evidence of polymerisation was obtained
[2]
  Promotion of polymerisation: did not promote polymerisation

## N#CC(C#N)=C1C(=CC=CC=CC2=C(O)c3ccccc3C2=C(C#N)C#N)C(=O)c2ccccc21 [Dye B]
[2]; 2mW laser diode, 820 nm, 10μm spot, 1 millisecond dwell time
  Width of tracks observed: 100 μm
[2]; 2mW laser diode, 820 nm, PVA barrier layer stripped off
  Toner powder attachment: attach to unirradiated areas only
[3]; coating lacking triphenylphosphine
  Minimum scan time required to destroy tackiness: 30 s
[3]; coating with triphenylphosphine
  Minimum scan time required to destroy tackiness: 0.5 s

## N#CC(C#N)=C1C(=CC=CC=CC2=C(O)c3c(cccc3[N+](=O)[O-])C2=C(C#N)C#N)C(=O)c2c1cccc2[N+](=O)[O-] [Dye C]
[1]
  Polymerisation of acrylate monomer: shown to occur in the exposed areas of the monomer coating, but not in unexposed areas
